Reference: the supplement of paper PMC10849652
Some of the results follow.

Amino acid sequences for entries named in this document (tags omitted). A change or cut given only in a name is not applied to a line headed by its entry.
UniProt Q9H4L4: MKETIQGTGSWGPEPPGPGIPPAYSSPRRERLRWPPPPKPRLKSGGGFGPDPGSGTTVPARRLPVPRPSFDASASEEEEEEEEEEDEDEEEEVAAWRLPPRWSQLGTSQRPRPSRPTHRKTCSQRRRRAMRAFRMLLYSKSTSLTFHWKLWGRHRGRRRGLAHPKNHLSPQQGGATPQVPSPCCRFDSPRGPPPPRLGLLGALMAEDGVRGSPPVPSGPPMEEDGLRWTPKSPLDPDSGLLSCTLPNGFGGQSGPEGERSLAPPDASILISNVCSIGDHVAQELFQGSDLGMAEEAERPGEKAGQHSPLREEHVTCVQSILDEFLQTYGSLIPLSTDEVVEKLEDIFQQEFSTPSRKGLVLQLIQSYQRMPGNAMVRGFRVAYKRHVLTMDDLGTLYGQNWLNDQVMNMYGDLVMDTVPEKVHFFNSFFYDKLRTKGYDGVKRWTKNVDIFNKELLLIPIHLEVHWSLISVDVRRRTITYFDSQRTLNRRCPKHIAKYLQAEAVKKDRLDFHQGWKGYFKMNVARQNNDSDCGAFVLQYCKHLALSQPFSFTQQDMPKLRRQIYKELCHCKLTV
UniProt Q9NRG7: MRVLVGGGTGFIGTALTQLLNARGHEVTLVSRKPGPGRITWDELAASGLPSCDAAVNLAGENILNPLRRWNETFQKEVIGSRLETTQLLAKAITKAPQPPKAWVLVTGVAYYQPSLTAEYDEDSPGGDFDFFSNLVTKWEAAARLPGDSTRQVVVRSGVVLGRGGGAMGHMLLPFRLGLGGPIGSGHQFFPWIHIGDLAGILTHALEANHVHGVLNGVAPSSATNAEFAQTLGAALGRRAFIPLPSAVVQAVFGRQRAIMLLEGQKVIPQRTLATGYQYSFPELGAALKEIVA
UniProt O75845: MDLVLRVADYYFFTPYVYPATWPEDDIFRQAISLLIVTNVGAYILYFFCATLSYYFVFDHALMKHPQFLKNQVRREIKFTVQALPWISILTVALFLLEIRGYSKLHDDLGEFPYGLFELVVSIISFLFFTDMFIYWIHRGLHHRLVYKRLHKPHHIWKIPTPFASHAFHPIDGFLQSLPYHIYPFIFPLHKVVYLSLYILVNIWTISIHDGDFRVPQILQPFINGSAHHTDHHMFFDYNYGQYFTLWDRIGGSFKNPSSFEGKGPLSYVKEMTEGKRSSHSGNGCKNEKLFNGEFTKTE
UniProt Q9H4B6: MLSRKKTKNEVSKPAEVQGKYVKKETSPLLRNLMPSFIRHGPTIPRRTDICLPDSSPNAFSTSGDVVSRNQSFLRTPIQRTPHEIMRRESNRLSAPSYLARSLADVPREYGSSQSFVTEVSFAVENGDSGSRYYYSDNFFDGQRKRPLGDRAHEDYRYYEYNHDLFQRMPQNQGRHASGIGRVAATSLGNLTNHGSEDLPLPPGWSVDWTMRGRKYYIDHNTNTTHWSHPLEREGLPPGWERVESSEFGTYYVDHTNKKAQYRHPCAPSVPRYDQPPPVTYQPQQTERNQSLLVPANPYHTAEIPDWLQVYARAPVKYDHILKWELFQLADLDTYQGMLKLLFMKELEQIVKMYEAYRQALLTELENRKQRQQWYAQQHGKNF
UniProt Q96LT4: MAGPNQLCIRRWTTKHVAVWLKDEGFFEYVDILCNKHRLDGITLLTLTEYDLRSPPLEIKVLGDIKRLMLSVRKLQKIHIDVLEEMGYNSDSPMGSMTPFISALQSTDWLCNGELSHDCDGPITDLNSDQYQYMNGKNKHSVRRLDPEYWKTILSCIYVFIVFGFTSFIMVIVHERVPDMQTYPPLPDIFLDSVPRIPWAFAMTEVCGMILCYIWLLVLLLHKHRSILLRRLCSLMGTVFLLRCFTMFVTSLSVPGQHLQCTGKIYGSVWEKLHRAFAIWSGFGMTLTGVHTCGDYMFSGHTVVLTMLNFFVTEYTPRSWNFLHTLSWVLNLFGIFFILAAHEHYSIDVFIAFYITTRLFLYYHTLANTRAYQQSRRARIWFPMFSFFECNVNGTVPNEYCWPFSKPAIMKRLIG
UniProt Q9NSC2: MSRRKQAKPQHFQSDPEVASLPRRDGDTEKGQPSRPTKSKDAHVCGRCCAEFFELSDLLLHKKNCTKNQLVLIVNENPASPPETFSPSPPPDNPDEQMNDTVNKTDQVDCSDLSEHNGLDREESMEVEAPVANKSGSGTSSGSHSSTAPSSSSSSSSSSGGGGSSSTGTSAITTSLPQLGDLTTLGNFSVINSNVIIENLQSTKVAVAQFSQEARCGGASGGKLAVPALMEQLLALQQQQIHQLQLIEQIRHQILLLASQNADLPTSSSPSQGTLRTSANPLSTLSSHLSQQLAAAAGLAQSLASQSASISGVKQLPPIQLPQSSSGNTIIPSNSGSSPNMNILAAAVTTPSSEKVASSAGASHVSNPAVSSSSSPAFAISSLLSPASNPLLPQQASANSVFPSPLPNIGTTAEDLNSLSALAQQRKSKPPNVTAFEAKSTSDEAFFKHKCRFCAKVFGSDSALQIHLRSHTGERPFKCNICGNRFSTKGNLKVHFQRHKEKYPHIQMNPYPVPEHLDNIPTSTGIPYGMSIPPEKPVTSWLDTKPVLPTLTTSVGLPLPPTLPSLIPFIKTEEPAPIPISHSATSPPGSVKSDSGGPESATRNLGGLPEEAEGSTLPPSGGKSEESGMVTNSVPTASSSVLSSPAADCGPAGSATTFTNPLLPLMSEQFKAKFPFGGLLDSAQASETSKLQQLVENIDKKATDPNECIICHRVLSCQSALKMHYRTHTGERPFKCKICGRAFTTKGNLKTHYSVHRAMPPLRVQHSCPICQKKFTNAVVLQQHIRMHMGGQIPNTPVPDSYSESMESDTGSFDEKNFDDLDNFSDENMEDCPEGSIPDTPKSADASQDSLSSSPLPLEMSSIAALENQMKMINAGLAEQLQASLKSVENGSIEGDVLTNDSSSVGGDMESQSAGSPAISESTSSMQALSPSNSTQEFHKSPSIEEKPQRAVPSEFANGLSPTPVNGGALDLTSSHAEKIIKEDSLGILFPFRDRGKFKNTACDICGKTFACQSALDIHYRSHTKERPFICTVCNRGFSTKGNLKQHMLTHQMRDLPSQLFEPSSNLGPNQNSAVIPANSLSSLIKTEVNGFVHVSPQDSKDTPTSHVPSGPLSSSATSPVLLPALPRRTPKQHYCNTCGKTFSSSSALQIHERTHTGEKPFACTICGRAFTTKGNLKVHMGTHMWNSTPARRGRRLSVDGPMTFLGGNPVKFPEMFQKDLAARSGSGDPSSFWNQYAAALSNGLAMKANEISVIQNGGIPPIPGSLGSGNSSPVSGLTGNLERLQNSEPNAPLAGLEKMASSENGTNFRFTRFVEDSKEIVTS
UniProt Q6SZW1: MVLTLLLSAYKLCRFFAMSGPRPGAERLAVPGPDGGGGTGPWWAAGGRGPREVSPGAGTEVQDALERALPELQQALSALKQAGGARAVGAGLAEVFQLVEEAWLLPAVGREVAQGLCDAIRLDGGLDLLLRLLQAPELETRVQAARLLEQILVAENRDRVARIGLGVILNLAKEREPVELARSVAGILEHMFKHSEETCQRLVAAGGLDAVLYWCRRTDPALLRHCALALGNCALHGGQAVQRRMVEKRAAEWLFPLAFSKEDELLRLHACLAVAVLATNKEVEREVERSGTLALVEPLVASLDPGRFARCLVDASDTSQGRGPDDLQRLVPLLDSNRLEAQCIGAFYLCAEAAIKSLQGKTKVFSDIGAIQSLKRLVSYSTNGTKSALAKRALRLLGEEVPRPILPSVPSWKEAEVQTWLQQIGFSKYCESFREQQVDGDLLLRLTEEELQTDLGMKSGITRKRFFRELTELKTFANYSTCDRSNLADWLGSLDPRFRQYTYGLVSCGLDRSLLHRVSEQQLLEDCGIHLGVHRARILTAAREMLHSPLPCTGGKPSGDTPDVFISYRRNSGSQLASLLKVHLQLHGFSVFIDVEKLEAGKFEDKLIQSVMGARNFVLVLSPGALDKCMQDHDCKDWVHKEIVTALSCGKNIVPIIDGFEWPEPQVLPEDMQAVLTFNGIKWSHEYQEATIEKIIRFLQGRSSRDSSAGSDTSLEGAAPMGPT
UniProt Q5VUM1: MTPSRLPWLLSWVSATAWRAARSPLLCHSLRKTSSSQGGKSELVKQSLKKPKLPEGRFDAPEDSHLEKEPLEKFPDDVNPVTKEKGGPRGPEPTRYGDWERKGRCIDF
UniProt Q92503: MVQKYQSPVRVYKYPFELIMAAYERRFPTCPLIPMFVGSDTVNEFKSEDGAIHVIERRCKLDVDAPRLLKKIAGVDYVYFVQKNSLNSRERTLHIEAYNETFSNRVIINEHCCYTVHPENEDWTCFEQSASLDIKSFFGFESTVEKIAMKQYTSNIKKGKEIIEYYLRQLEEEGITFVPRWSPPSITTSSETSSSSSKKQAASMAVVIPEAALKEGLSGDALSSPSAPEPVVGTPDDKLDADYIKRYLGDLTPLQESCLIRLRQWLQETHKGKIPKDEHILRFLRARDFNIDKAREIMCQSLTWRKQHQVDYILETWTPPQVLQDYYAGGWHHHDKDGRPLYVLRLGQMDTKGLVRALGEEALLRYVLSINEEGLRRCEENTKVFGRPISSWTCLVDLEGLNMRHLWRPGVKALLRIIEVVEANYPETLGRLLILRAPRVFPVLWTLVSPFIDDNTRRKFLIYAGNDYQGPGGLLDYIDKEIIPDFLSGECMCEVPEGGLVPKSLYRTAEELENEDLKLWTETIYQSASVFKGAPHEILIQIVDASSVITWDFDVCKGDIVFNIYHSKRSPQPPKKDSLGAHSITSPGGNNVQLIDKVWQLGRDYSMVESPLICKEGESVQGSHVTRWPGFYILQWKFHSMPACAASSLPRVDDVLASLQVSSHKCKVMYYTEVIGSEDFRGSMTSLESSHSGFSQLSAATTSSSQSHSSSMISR
UniProt Q9UIL1: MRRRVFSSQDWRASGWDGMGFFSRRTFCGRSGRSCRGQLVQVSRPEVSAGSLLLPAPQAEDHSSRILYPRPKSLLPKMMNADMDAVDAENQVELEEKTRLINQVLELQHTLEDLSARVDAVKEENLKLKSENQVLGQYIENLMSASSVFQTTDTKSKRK
UniProt Q8N9R8: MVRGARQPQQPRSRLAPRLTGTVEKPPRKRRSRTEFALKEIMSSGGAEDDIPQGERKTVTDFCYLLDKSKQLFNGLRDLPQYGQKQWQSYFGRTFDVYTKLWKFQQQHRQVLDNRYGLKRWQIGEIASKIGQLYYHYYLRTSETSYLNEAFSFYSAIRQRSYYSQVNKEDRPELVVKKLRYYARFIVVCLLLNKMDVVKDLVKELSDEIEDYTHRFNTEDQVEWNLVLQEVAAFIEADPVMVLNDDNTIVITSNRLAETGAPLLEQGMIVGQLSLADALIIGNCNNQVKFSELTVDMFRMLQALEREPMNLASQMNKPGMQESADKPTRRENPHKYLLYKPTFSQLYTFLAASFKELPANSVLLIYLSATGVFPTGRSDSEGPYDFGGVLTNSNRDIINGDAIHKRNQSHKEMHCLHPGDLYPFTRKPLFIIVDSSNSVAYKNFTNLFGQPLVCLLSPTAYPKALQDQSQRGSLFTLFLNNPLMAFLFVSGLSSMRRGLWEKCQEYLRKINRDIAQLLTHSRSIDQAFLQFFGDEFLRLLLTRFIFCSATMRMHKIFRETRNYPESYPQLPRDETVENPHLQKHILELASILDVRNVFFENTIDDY
UniProt A6NKF1: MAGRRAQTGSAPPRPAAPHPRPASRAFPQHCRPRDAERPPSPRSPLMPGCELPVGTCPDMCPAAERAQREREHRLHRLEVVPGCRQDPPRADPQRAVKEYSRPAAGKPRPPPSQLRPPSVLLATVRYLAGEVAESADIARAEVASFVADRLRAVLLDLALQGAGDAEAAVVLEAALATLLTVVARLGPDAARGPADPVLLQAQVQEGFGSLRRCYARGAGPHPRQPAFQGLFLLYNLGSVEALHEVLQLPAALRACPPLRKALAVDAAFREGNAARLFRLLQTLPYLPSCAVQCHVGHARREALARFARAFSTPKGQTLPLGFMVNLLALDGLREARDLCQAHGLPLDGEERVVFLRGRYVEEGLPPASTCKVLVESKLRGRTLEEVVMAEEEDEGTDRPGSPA
UniProt Q9C0D9, whole entry, looked up: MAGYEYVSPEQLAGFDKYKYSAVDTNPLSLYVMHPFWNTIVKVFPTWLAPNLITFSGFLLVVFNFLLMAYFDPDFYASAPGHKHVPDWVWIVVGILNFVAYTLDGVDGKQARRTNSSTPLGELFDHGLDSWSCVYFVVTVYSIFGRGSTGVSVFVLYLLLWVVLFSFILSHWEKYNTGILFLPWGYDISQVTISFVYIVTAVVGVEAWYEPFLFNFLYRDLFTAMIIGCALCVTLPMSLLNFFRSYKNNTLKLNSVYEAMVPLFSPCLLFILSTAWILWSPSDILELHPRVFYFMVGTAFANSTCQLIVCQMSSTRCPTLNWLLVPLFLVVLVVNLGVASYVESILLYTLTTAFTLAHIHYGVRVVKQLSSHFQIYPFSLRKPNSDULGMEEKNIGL
UniProt O75556: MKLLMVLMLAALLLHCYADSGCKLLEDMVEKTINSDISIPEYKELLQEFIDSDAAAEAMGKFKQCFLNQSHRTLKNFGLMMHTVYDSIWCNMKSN
UniProt P63302, whole entry, looked up: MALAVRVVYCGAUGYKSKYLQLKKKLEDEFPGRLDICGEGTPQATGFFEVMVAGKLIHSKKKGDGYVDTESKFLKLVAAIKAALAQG

What was measured:
Assay in all cases: log2 fold change, soluble protein after heating vs DMSO (PISA); higher = thermal stabilisation; K562 lysate, 10 uM; active = over 0.2 and 3.5 SD of the protein, either way, in both replicates (recomputed)
dasatinib = compound: Cc1nc(Nc2ncc(C(=O)Nc3c(C)cccc3Cl)s2)cc(N2CCN(CCO)CC2)n1 [dasatinib]
In short: (§1)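 Log-two fold change in thermal stability relative to solvent controls is reported from duplicates. For each sample, crude K562 extract from dounce-homogenised pellets in PBS pH 7.4 with 1 mM MgCl2, at 1 mg/mL protein, was treated with 10 μM compound for 30 min. Aliquots heated for 3 min across 48°C-58°C were pooled, brought to 0.5% NP-40 at 4°C and cleared at 21,000xg for 90 min. The supernatant was quantified by TMTpro 16plex LC-MS/MS with channel sums equalised.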

[1] = compound: Cn1cc(-c2ccc3c(c2)CCN3C(=O)Cc2cccc(C(F)(F)F)c2)c2c(N)ncnc21
In short: as §1

quisinostat = compound: Cn1cc(CNCC2CCN(c3ncc(C(=O)NO)cn3)CC2)c2ccccc21 [quisinostat]
In short: as §1

[2] = compound: NC(=O)Nc1cc(-c2cccc(F)c2)sc1C(=O)N[C@H]1CCCNC1
In short: as §1

[3] = compound: NC(=O)c1cnc(N[C@@H]2CCCC[C@@H]2N)nc1Nc1cccc(-n2nccn2)c1
In short: as §1

[4] = compound: NC1(c2ccc(-c3nc4ccn5c(=O)[nH]nc5c4cc3-c3ccccc3)cc2)CCC1
In short: as §1

[5] = compound: NCC(=O)Nc1ccc(-n2nc(C(F)(F)F)cc2-c2ccc3c(ccc4ccccc43)c2)cc1
In short: as §1

vorinostat = compound: O=C(CCCCCCC(=O)Nc1ccccc1)NO [vorinostat]
In short: as §1

silmitasertib = compound: O=C(O)c1ccc2c(c1)nc(Nc1cccc(Cl)c1)c1ccncc12 [silmitasertib]
In short: as §1

[6] = compound: O=C1NC(=O)C(c2cnc3ccccn23)=C1c1cn2c3c(cc(F)cc13)CN(C(=O)N1CCCCC1)CC2
In short: as §1

entospletinib = compound: c1cn2cc(-c3ccc4cn[nH]c4c3)nc(Nc3ccc(N4CCOCC4)cc3)c2n1 [entospletinib]
In short: as §1

nilotinib = compound: Cc1cn(-c2cc(NC(=O)c3ccc(C)c(Nc4nccc(-c5cccnc5)n4)c3)cc(C(F)(F)F)c2)cn1 [nilotinib]
In short: as §1

[7] = compound: Cc1nc(Nc2n[nH]c3c2CN(C(=O)N[C@H](CN(C)C)c2ccccc2)C3(C)C)c2sccc2n1
In short: as §1

[8] = compound: Cc1ncc(-c2ccnc(Nc3ccc(S(C)(=O)=O)cc3)n2)n1C(C)C
In short: as §1

tipifarnib = compound: Cn1cncc1[C@@](N)(c1ccc(Cl)cc1)c1ccc2c(c1)c(-c1cccc(Cl)c1)cc(=O)n2C [tipifarnib]
In short: as §1

Measured: log2 fold change

SAMD4A (UniProt Q9UPU9)
inactive: dasatinib -0.228 | [1] -0.005 | quisinostat -0.069 | [2] 0.058 | [3] -0.023 | [4] 0.012 | [5] -0.038 | silmitasertib 0.027 | [6] 0.014 | entospletinib -0.053
active: vorinostat -0.647

SBNO2 (UniProt Q9Y2G9)
inactive: [5] 0.126

SENP3 (UniProt Q9H4L4)
inactive: dasatinib -0.016 | [1] 0.181 | quisinostat 0.075 | [2] 0.102 | [3] 0.38 | [4] -0.075 | [5] 0.143 | vorinostat -0.128 | silmitasertib 0.044 | [6] 0 | entospletinib 0.045

SENP2 (UniProt Q9HC62)
inactive: nilotinib 0.031 | [7] 0.009 | [8] 0.249 | tipifarnib -0.257

SCAND1 (UniProt P57086)
inactive: quisinostat 0.152 | [2] -0.12 | [6] -0.195

SDR39U1 (UniProt Q9NRG7)
inactive: nilotinib 0.024 | [7] -0.126 | [8] -0.065 | tipifarnib 0 | [3] 0 | [4] -0.175 | vorinostat -0.072 | silmitasertib -0.063

SELPLG isoform 2 (UniProt Q14242)
inactive: [3] -0.029

SC5D (UniProt O75845)
inactive: quisinostat -0.127 | [2] 0.017 | [3] -0.005 | [6] -0.01 | entospletinib -0.04

Fetched one by one from the entries so far, two records:
SCAND1 (UniProt P57086)
inactive: quisinostat 0.152 | [2] -0.12 | [6] -0.195

SELPLG isoform 2 (UniProt Q14242)
inactive: [3] -0.029

(listing goes on)

SAV1 (UniProt Q9H4B6)
inactive: nilotinib -0.06 | [7] 0.054 | [8] 0.044 | tipifarnib 0.054

SAMD8 (UniProt Q96LT4)
inactive: [4] -0.117 | vorinostat 0.183 | silmitasertib 0.015

SDCCAG8 (UniProt S4R323)
inactive: quisinostat 0.079 | [2] 0.071 | [4] 0.071 | vorinostat -0.181 | silmitasertib 0.037 | [6] 0.035

SALL1 (UniProt Q9NSC2)
inactive: nilotinib -0.11 | [7] -0.02 | [8] 0.025 | tipifarnib 0.173 | entospletinib 0.043

SACS (UniProt Q9NZJ4)
inactive: nilotinib 0.058 | [7] 0.042 | [8] 0.007 | tipifarnib 0.014

SEC16A isoform 3 (UniProt O15027)
inactive: dasatinib -0.026 | [1] -0.039

SARM1 (UniProt Q6SZW1)
inactive: nilotinib -0.065 | [7] -0.033 | [8] -0.042 | tipifarnib -0.148 | [3] -0.07 | [4] 0.086 | vorinostat 0.017 | silmitasertib -0.102

SDHAF4 (UniProt Q5VUM1)
inactive: dasatinib 0.023 | [1] -0.017 | quisinostat 0.098 | [2] -0.085 | [3] 0.001 | [4] -0.051 | [5] -0.144 | vorinostat 0.121 | silmitasertib -0.045 | [6] -0.075 | entospletinib -0.037

SDHB, A0A087WXX8
inactive: nilotinib -0.034 | [7] -0.109 | [8] 0.022 | tipifarnib -0.255 | [5] 0.021

SAP130 isoform 3 (UniProt Q9H0E3)
inactive: dasatinib 0.014 | [1] 0.014 | quisinostat -0.144 | [2] 0.076 | [3] 0.038 | [4] 0.03 | [5] 0.073 | vorinostat -0.139 | silmitasertib -0.097 | [6] 0.035 | entospletinib -0.123

SEC14L1 isoform 2 (UniProt Q92503)
inactive: [3] 0.06 | [5] 0.267

SAE1 (UniProt M0R286)
inactive: dasatinib 0.074 | [1] 0.107 | [3] 0.089 | [4] -0.044 | [5] 0.148 | vorinostat 0.005 | silmitasertib 0.013 | entospletinib -0.019

SCOC (UniProt Q9UIL1)
inactive: dasatinib -0.125 | [1] 0.032 | quisinostat -0.02 | [2] -0.025 | [4] -0.025 | vorinostat 0.356 | silmitasertib 0.095 | [6] -0.105

SCAI isoform 2 (UniProt Q8N9R8)
inactive: nilotinib 0.017 | [7] -0.214 | [8] 0.053 | tipifarnib 0.36 | [5] 0.236 | entospletinib 0.107

SAC3D1 (UniProt A6NKF1)
inactive: nilotinib -0.118 | [7] 0.116 | [8] 0.109 | quisinostat -0.124 | tipifarnib 0.061 | [2] -0.043 | [6] -0.126

SELENOI (UniProt Q9C0D9)
inactive: dasatinib -0.093 | [1] -0.085 | quisinostat 0.055 | [2] 0.113 | [3] 0.024 | [4] 0.115 | vorinostat 0.112 | silmitasertib -0.05 | [6] 0.005 | entospletinib 0.003

SCGB2A1 (UniProt O75556)
inactive: [3] 0.101

SELENOM (UniProt Q8WWX9)
inactive: quisinostat 0.008 | [2] 0.008 | [3] -0.087 | [6] 0.004

SELENOW (UniProt P63302)
inactive: quisinostat 0.128 | [2] -0.051 | [3] 0.048 | [6] -0.045

SEMA4G isoform 2 (UniProt Q9NTN9)
inactive: dasatinib 0.006 | [1] 0.235 | quisinostat 0.074 | [2] 0.085 | [4] 0.077 | [5] 0.078 | silmitasertib 0.172 | [6] 0.103 | entospletinib -0.09
active: vorinostat -0.513
